The record followed here is PMC6420597, “The MurG glycosyltransferase provides an oligomeric scaffold for the cytoplasmic steps of peptidoglycan biosynthesis in the human pathogen Bordetella pertussis” (Scientific Reports, 2019).

For test [1], the target named is T1, MurG glycosyltransferase from Bordetella pertussis, N-terminal Strep-tagged (Bordetella pertussis (strain ATCC 9797/DSM No 5571)) (UniProt Q7VUQ3).
T1 sequence: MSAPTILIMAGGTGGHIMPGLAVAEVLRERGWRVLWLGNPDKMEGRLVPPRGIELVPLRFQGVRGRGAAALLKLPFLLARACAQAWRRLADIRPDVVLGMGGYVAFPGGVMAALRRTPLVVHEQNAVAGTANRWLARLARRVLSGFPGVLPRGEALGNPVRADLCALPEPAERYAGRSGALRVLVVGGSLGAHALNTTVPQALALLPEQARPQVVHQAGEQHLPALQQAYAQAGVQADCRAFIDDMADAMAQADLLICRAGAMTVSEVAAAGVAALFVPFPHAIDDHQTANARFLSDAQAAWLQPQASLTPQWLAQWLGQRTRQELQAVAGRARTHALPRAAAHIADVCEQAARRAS
The experiment in a line: far-Western, overlay or dot blot; dot blot: MurG purified in 1.2 x CMC DDM (dimeric) spotted on nitrocellulose, 50 ng to 1 μg; incubated overnight at 4 °C with 0.1 mg/mL MurE-MurF in PBS-T; detected with anti-MurE-MurF antibodies; both purified.

The target in test [2] is T1, MurG glycosyltransferase from Bordetella pertussis, N-terminal Strep-tagged (Bordetella pertussis (strain ATCC 9797/DSM No 5571)). Description: far-Western, overlay or dot blot; dot blot: MurG purified without detergent (oligomeric) spotted on nitrocellulose, 50 ng to 1 μg; incubated overnight at 4 °C with 0.1 mg/mL MurE-MurF in PBS-T; detected with anti-MurE-MurF antibodies; both purified.

No constants are given. Whether binding was seen depends on the method and setting. Binding can be weak; no strength is given. Sequences can lack the tags named with a protein.

Regarding “MurE-MurF bifunctional fusion protein from Bordetella pertussis, His-tagged (enzyme)”, the binding result in test [1] and in test [2] was “binds” in each case.
